Results: publication doi:10.1101/2023.03.14.532574
Results are given in words; binding and its absence hold for the method and conditions named. Binding seen in cells or lysates may run through a third protein. Some results given as binding are weak or reduced against the parent protein; the word gives no strength.

Sequences of proteins named here, by UniProt entry; tags and fusion partners are left off.
UniProt Q9P2D3: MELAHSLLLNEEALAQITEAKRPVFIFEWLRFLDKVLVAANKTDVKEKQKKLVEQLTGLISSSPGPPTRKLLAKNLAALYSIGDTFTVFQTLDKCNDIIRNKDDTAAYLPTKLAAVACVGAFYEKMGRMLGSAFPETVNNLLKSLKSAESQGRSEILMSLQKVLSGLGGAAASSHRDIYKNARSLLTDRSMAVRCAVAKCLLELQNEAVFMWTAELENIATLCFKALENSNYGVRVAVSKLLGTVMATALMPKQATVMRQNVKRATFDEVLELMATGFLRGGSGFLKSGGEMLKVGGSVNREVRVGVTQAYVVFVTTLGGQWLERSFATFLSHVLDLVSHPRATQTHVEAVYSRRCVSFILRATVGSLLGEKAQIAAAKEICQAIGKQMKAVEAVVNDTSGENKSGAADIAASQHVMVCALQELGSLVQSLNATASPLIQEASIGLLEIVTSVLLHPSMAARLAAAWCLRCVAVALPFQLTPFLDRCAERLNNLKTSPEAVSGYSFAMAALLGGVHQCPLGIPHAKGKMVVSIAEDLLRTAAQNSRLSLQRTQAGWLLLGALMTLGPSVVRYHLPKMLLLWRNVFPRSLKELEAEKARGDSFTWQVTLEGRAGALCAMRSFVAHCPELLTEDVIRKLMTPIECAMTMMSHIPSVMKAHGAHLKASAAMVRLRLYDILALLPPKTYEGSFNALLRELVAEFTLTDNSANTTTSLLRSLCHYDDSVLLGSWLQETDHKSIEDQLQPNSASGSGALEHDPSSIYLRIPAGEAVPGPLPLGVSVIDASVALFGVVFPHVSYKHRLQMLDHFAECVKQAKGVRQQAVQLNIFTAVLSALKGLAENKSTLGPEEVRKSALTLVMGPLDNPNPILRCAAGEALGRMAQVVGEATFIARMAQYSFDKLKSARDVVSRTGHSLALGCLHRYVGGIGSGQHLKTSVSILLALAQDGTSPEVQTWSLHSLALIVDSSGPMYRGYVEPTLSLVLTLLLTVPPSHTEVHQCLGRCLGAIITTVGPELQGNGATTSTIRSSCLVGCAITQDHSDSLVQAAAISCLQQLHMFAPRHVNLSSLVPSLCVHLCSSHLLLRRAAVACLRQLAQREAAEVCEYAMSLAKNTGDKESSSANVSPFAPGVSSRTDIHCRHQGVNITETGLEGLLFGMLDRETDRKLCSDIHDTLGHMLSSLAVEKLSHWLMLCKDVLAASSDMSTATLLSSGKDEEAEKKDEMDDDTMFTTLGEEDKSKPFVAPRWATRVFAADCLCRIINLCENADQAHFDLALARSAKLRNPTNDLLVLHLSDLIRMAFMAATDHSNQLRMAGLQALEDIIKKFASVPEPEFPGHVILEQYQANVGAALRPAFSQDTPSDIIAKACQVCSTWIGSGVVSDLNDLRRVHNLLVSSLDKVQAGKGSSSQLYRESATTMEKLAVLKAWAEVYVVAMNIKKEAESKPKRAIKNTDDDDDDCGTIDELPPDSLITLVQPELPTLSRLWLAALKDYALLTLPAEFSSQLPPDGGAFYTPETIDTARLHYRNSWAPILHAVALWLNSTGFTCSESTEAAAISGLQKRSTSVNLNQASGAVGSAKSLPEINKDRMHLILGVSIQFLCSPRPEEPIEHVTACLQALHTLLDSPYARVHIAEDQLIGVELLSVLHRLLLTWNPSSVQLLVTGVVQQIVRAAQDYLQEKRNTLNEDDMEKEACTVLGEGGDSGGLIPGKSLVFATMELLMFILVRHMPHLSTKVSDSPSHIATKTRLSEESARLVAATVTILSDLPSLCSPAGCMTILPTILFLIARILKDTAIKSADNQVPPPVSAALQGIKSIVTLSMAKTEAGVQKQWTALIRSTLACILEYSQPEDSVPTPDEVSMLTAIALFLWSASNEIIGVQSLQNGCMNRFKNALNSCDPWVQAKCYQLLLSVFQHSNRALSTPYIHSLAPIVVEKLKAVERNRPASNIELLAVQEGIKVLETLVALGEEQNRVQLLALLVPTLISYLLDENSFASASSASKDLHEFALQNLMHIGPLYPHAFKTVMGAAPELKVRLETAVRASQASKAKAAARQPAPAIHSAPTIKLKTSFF

B1: Aftiphilin (AFTPH), endogenous in HEK293 cells (protein, UniProt Q6ULP2 1-936)
chain: MEPDIIRMYSSSPPPLDNGAEDDDDDEFGEFGGFSEVSPSGVGFVDFDTPDYTRPKEEFVPSNHFMPIHEFSENVDSLTSFKSIKNGNDKDITAELSAPVKGQSDVLLSTTSKEIISSEMLATSIDGMERPGNLNKVVEQRQNVGTLESFSPGDFRTNMNVVHQNKQLESCNGEKPPCLEILTNGFAVLETVNPQGTDDLDNVADSKGRKPLSTHSTEYNLDSVPSPAEEFADFATFSKKERIQLEEIECAVLNDREALTIRENNKINRVNELNSVKEVALGRSLDNKGDTDGEDQVCVSEISIVTNRGFSVEKQGLPTLQQDEFLQSGVQSKAWSLVDSADNSEAIRREQCKTEEKLDLLTSKCAHLCMDSVKTSDDEVGSPKEESRKFTNFQSPNIDPTEENDLDDSLSVKNGDSSNDFVTCNDINEDDFGDFGDFGSASGSTPPFVTGTQDSMSDATFEESSEHFPHFSEPGDDFGEFGDINAVSCQEETILTKSDLKQTSDNLSEECQLARKSSGTGTEPVAKLKNGQEGEIGHFDSVPNIQDDCNGFQDSDDFADFSSAGPSQVVDWNAFEDEQKDSCSWAAFGDQQATESHHRKEAWQSHRTDENIDTPGTPKTHSVPSATSKGAVASGHLQESATSVQTALLNRLERIFEACFPSILVPDAEEEVTSLKHLLETSTLPIKTREALPESGELLDVWTELQDIHDAHGLRYQWGGSHSNKKLLSSLGIDTRNILFTGNKKQPVIVPMYAAGLGMLEPTKEPLKPLSAAEKIASIGQTATMSPDMNTCTSDQFQESLPPVQFDWSSSGLTNPLDASGGSTLLNLDFFGPVDDSSSSSSTTIPGVDPELYELTTSKLEISTSSLKVTDAFARLMSTVEKTSTSTRKPKREEHLSEEAIKVIAGLPDLTFMHAKVLMFPATLTPSTSSQEKADG
B2: γ-synergin (SYNRG), endogenous in HEK293 cells (protein, UniProt Q9UMZ2 1-1314)
chain: MALRPGAGSGGGGAAGAGAGSAGGGGFMFPVAGGIRPPQAGLMPMQQQGFPMVSVMQPNMQGIMGMNYSSQMSQGPIAMQAGIPMGPMPAAGMPYLGQAPFLGMRPPGPQYTPDMQKQFAEEQQKRFEQQQKLLEEERKRRQFEEQKQKLRLLSSVKPKTGEKSRDDALEAIKGNLDGFSRDAKMHPTPASHPKKPGPSLEEKFLVSCDISTSGQEQIKLNTSEVGHKALGPGSSKKYPSLMASNGVAVDGCVSGTTTAEAENTSDQNLSIEESGVGVFPSQDPAQPRMPPWIYNESLVPDAYKKILETTMTPTGIDTAKLYPILMSSGLPRETLGQIWALANRTTPGKLTKEELYTVLAMIAVTQRGVPAMSPDALNQFPAAPIPTLSGFSMTLPTPVSQPTVIPSGPAGSMPLSLGQPVMGINLVGPVGGAAAQASSGFIPTYPANQVVKPEEDDFQDFQDASKSGSLDDSFSDFQELPASSKTSNSQHGNSAPSLLMPLPGTKALPSMDKYAVFKGIAADKSSENTVPPGDPGDKYSAFRELEQTAENKPLGESFAEFRSAGTDDGFTDFKTADSVSPLEPPTKDKTFPPSFPSGTIQQKQQTQVKNPLNLADLDMFSSVNCSSEKPLSFSAVFSTSKSVSTPQSTGSAATMTALAATKTSSLADDFGEFSLFGEYSGLAPVGEQDDFADFMAFSNSSISSEQKPDDKYDALKEEASPVPLTSNVGSTVKGGQNSTAASTKYDVFRQLSLEGSGLGVEDLKDNTPSGKSDDDFADFHSSKFSSINSDKSLGEKAVAFRHTKEDSASVKSLDLPSIGGSSVGKEDSEDALSVQFDMKLADVGGDLKHVMSDSSLDLPTVSGQHPPAADIEDLKYAAFGSYSSNFAVSTLTSYDWSDRDDATQGRKLSPFVLSAGSGSPSATSILQKKETSFGSSENITMTSLSKVTTFVSEDALPETTFPALASFKDTIPQTSEQKEYENRDYKDFTKQDLPTAERSQEATCPSPASSGASQETPNECSDDFGEFQSEKPKISKFDFLVATSQSKMKSSEEMIKSELATFDLSVQGSHKRSLSLGDKEISRSSPSPALEQPFRDRSNTLNEKPALPVIRDKYKDLTGEVEENERYAYEWQRCLGSALNVIKKANDTLNGISSSSVCTEVIQSAQGMEYLLGVVEVYRVTKRVELGIKATAVCSEKLQQLLKDIDKVWNNLIGFMSLATLTPDENSLDFSSCMLRPGIKNAQELACGVCLLNVDSRSRKEEKPAEEHPKKAFNSETDSFKLAYGGHQYHASCANFWINCVEPKPPGLVLPDLL

target: GFP-tagged HEATR5B stably expressed in HEK293 cells (human) (UniProt Q9P2D3); experiment: co-IP

binding, binds:
DCTN1, endogenous in HEK293 cells (from UniProt Q14203 1-1278)
DYNC1H1, endogenous in HEK293 cells (from UniProt Q14204 1-4646)
B1
B2
